Data taken from PubChem BioAssay AID2685 (National Center for Advancing Translational Sciences (NCATS), 2010).
This is one part of the list. Further columns of the screen follow, without active or inactive calls. Compounds called inactive in the main read-out are mostly missing here. The note in brackets gives the kind of curve behind each potency; many fits are weak.

Assay: qHTS Assay for Lipid Storage Modulators in Drosophila S3 Cells;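 for cell number change: cells counted by Cell Tracker Red CMTPX staining in the red channel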
Conditions: BODIPY lipid droplet fluorescence, 18-24 h; for cell number change: measured here: cell count max response, cells fed with added oleic acid
Procedure, shortened: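 Drosophila S3 cells got compounds at several concentrations plus oleic acid (400 uM solution). Laser-scanning cytometry with 488 nm excitation read lipid droplets at 500-530 nm and cells at 575-640 nm. Percent activity was relative to 20 uM Triacsin C.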

[1] = measured here: lipid fluorescence (Fed channel) AC50, cells fed with added oleic acid
[2] = measured here: cell number channel AC50, cells fed with added oleic acid

SMILES	AC50 [1]	cell number change [%]	AC50 [2]
Nn1c(SCC(=O)N2CCN(S(=O)(=O)c3ccc(Cl)cc3)CC2)nnc1-c1cccs1	4.11 µM [rising, partial curve]		
Cc1ccc(-n2nnnc2SCC(=O)N2CC(=O)Nc3ccccc32)cc1		33.9	0.651 µM [rising, full curve, poor fit]
COc1ccc(C2c3sc(=O)[nH]c3SC3C4CCC(C4)C23)cc1OC (stereo not drawn)	29.1 µM [falling, single point]	-32.1	25.9 µM [falling, single point]
COc1cc(C(=O)NNC(=O)c2ccc(F)cc2)ccc1OCC(=O)N1CCOCC1	16.4 µM [rising, partial curve, poor fit]	0.648	
Cc1cc(NS(=O)(=O)c2ccc(NC(=O)c3cnc(Cl)c(Cl)c3)cc2)nc(C)n1	0.411 µM [rising, partial curve, poor fit]	13.3	
Cc1cc(NC(=O)C2CC2)n(-c2nc3ccccc3s2)n1		4.76	
O=C1COc2ccc(S(=O)(=O)CCC(=O)N3CCN(c4ccccc4)CC3)cc2N1	5.17 µM [rising, single point]	6.26	
Cc1ccc(/C=N/NC(=O)CSc2nc3ccccc3n2Cc2ccc(Cl)cc2)o1	29.1 µM [rising, single point]	49	4.61 µM [rising, partial curve]
COC(=O)c1cc(Br)ccc1N(Cc1cc(OC)cc(OC)c1)S(C)(=O)=O	18.4 µM [falling, partial curve, poor fit]	-3.43	1.16 µM [falling, single point]
Cc1ccc(/C(=C\CN2CCCC2)c2ccccn2)cc1	0.731 µM [rising, partial curve, poor fit]	-2.43	
C[C@H](NC(=O)c1ccccc1F)C(=O)N1CCC2(CC1)NCCc1[nH]cnc12	0.116 µM [rising, single point]		
COc1cc(/C=C/C(=O)NC(C)C2CC3CCC2C3)cc(OC)c1OC (stereo not drawn)	4.11 µM [falling, full curve]		
Cn1c(=O)c2cc(S(=O)(=O)NC(Cc3ccccc3)C(=O)NCc3ccco3)ccc2n(C)c1=O (stereo not drawn)		-13	
COCCCNc1nc2c(-c3cccc(C)c3)nnn2c2ccc(Cl)cc12	7.31 µM [falling, partial curve]	-68	7.31 µM [falling, partial curve]
O=C(c1cc(-c2cccc(O)c2)on1)N1CCCC1	1.16 µM [rising, single point]	7.08	
Cc1cccc(CC(=O)Nc2sc(C(C)C)cc2C(=O)N2CCOCC2)c1	29.1 µM [rising, partial curve]	84.8	6.51 µM [rising, partial curve, poor fit]
O=C(CC(c1ccco1)S(=O)(=O)c1ccccc1)c1ccccc1 (stereo not drawn)	3.66 µM [falling, single point]	-13.1	4.61 µM [falling, single point]
COc1cc(C)ccc1OCCOc1ccccc1Cl	20.6 µM [rising, single point]		
O=C(CCc1nnc2n(Cc3ccc(F)cc3)c(=O)c3ccccc3n12)NCCN1CCOCC1	6.51 µM [falling, single point]	10.4	

SMILES	AC50 [1]	cell number change [%]	AC50 [2]
COc1ccc(C(=O)N2CCN(c3ccc(C)cc3C)CC2)cc1OC	4.61 µM [rising, partial curve]	3.58	
CC(=O)N(CCc1ccccc1C)Cc1cc2cc3c(cc2[nH]c1=O)OCO3	2.31 µM [rising, full curve]	103	2.06 µM [rising, full curve]
Cc1ccc(C(=O)Nc2sc(C)c(C)c2C(=O)c2ccccc2)cc1	2.91 µM [rising, full curve]	11.2	
Cc1cc(C)cc(NS(=O)(=O)c2ccc3[nH]cc(C(=O)N4CCc5ccccc54)c(=O)c3c2)c1	32.6 µM [rising, single point]	3.22	
Fc1cccc(CO/N=C/c2c(-c3ccccc3)nc3ccc(Cl)cn23)c1		-42.7	
O=C(NCc1ccco1)C1(c2ccccc2)CCCC1	2.06 µM [falling, partial curve]	0.129	
COc1cc(C(=O)NC(=S)Nc2ccccc2[N+](=O)[O-])cc(OC)c1OC		15	
O=C(CC(SCCO)c1ccc(F)cc1)c1ccco1 (stereo not drawn)		0.149	
CCCCn1c(-c2csc(CC)c2)n[nH]c1=S	0.116 µM [rising, partial curve]	-9.69	
COc1ccc(CCC(C)Nc2ccccc2F)cc1 (stereo not drawn)	23.1 µM [rising, single point]	32.4	6.51 µM [rising, single point]
CCc1nc(OCCN(C)C)c2oc3ccccc3c2n1		-31.4	32.6 µM [falling, single point]
COC(=O)C1CCN(C(=O)c2cc(OC)c(OC)c(OC)c2)CC1	23.1 µM [rising, single point]	4.9	
O=C(CC1SC(N2CCCCC2)=NC1=O)Nc1cccc(C(=O)O)c1 (stereo not drawn)		-29.8	
COc1cc(Br)cc2cc(C(=O)N3CCCCC3C)c(=O)oc12 (stereo not drawn)	3.26 µM [rising, single point]	-1.72	
CC(=O)c1ccc(S(=O)(=O)N2CCN(CC(=O)Nc3ccccc3C(=O)NC3CC3)CC2)cc1	5.8 µM [falling, full curve]		
COc1ccccc1CNC(=O)C1=CCN(S(=O)(=O)c2ccc(C)cc2)CC1	2.91 µM [rising, full curve]	12.8	
CC(C)(C)c1ccc(C(=O)Nc2nnc(Cc3c[nH]c4ccccc34)s2)cc1		30.4	4.61 µM [rising, full curve, poor fit]
O=C(Nc1ccccc1)N(CCCN1CCOCC1)Cc1cccs1	6.51 µM [rising, single point]	30.6	6.51 µM [rising, single point]
CCNC(=S)Nc1cccc(S(=O)(=O)Nc2ccccc2OC)c1		-5.44	

Some of the entries so far, comma-delimited:
SMILES,AC50 [1],cell number change [%],AC50 [2]
O=C(NCc1ccco1)C1(c2ccccc2)CCCC1,"2.06 µM [falling, partial curve]",0.129,
COc1cc(C(=O)NC(=S)Nc2ccccc2[N+](=O)[O-])cc(OC)c1OC,,15,
